In US20030216444A1, “Benzoylpyridine derivative or its salt, fungicide containing it as an active ingredient, its production process and intermediate for producing it” (priority 2000, published 2003):
Some entries share one result that the patent states for a list of compounds.

Key:
[1] = test system: Rice Blast (fungi of rice blast); format: in vivo, Rice (cultivar: Nihonbare); details: spray before inoculation, concentration of 500 ppm, number of lesions 6 to 11 days after inoculation
[2] = test system: Wheat Powdery Mildew (fungi of powdery mildew); test: Tests on Preventive Effect Against Wheat Powdery Mildew; format: in vivo, Wheat (cultivar: Norin-61-go); details: spray before inoculation, concentration of 500 ppm, area of sporogony 6 to 8 days after inoculation
[3] = test system: Eggplant Powdery Mildew (fungi of eggplant powdery mildew); details: spray before inoculation, concentration of 500 ppm, area of sporogony 16 days after inoculation

Structure (SMILES): COc1cc(C)c(C(=O)c2ccc(C(F)(F)F)nc2Cl)c(OC)c1OC [compound 136]
- controlling index [1]: 4 (Area of lesions, number of lesions or area of sporogony is less than 10% of non-treated plot)

Structure (SMILES): COc1cc(C)c(C(=O)c2c(Cl)cnc(Cl)c2C(F)(F)F)c(OC)c1OC [compound No. 90, 4-(2,3,4-trimethoxy-6-methylbenzoyl)-2,5-dichloro-3-trifluoromethylpyridine]
- controlling index [1]: 4 (Area of lesions, number of lesions or area of sporogony is less than 10% of non-treated plot)

Structure (SMILES): COc1cc(C)c(C(=O)c2c(C(F)(F)F)ccnc2SC)c(O)c1OC [compound 76]
- controlling index [2]: 4 (Area of lesions, number of lesions or area of sporogony is less than 10% of non-treated plot)
- controlling index [1]: 4 (Area of lesions, number of lesions or area of sporogony is less than 10% of non-treated plot)

Structure (SMILES): COc1cc(C)c(C(=O)c2c(C(F)(F)F)cnc(Cl)c2Cl)c(OC)c1OC [compound 103]
- controlling index [3]: 4 (Area of lesions, number of lesions or area of sporogony is less than 10% of non-treated plot)
- controlling index [1]: 4 (Area of lesions, number of lesions or area of sporogony is less than 10% of non-treated plot)

Structure (SMILES): COc1cc(C)c(C(=O)c2c(OC)ncc(Cl)c2C(F)(F)F)c(OC)c1OC [compound 56]
- controlling index [1]: 4 (Area of lesions, number of lesions or area of sporogony is less than 10% of non-treated plot)

Structure (SMILES): COc1cc(C(F)(F)F)c(C(=O)c2c(C)cc(OC)c(OC)c2OC)c(Cl)n1 [compound 31]
- controlling index [1]: 4 (Area of lesions, number of lesions or area of sporogony is less than 10% of non-treated plot)
